Results from article doi:10.1101/2021.04.27.441574.
Results are given in words; binding and its absence hold for the method and conditions named. In cells and extracts the contact can be indirect. Some results given as binding are weak or reduced against the parent protein; the word gives no strength. Where a sequence is shown, tags or fusion partners need not be part of it.

How the values were obtained:
MgtA-HA (E. coli) = target: T1, MgtA-HA (E. coli) (UniProt P0ABB8); test: co-IP
T1 sequence: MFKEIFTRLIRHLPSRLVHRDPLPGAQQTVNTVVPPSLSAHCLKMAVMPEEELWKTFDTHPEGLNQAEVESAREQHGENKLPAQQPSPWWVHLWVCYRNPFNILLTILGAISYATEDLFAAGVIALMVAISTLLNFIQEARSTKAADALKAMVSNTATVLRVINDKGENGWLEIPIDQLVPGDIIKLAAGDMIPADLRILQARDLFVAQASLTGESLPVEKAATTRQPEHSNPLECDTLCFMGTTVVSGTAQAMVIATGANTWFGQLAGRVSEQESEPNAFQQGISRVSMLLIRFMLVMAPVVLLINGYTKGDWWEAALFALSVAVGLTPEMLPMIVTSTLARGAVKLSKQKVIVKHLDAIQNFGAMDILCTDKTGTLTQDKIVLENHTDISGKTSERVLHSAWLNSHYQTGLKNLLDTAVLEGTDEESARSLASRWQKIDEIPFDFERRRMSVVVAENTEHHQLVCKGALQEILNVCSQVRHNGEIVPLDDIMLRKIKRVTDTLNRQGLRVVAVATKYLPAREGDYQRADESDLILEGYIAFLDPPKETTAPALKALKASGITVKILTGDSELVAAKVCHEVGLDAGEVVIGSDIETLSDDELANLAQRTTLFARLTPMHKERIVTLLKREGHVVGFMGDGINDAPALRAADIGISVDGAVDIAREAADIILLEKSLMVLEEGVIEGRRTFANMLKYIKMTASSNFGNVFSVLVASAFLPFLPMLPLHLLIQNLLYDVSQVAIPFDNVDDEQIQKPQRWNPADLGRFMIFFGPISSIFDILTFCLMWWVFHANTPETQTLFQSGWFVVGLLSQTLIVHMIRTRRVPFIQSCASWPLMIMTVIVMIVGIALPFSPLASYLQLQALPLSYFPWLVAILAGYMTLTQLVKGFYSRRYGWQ

GlpD-HA-His6 (E. coli) = target: T2, GlpD-HA-His6 (E. coli) (UniProt P13035); test: co-IP
T2 sequence: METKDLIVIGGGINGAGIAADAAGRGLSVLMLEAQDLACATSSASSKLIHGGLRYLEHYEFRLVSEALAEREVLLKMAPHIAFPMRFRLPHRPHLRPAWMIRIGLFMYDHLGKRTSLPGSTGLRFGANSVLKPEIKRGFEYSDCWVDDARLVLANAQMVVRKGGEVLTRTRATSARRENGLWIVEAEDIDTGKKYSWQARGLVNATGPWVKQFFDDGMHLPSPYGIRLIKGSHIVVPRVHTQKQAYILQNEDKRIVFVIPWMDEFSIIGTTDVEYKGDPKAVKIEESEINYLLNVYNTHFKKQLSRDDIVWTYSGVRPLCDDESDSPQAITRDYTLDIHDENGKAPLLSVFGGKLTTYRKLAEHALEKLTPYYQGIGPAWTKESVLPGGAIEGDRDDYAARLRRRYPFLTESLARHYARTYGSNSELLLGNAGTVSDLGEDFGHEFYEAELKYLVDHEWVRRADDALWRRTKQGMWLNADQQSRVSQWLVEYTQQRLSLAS

B1: AzuC-SPA (peptide, UniProt C1P605 1-28)
chain: MKLRKILKSMFNNYCKTFKDVPPGNMFR
- binding (MgtA-HA (E. coli)): no binding
- binding (GlpD-HA-His6 (E. coli)): binds
